The record followed here is patent publication US20210363217A1.

Results are given in words; binding and its absence hold for the method and conditions named. Some entries that bind do so weakly or less than the wild type.

To fix the notation:
B1: Cs3 FN3 based monobody (designed binder)
chain: SSVPTKLEVVAATPTSLLISWDAPAVTVDYYVITYGETGHWPWVWQEFEVPGSKSTATISGLKPGVDYTITVYAGSYSSYYYYGSPISINYRT
B2: Cs4 FN3 based monobody (designed binder)
chain: SSVPTKLEVVAATPTSLLISWDAPAVTVDYYVITYGETGYWPYYWQEFEVPGSKSTATISGLKPGVDYTITVYAGHYNSYYYSYSPISINYRT
B3: Cs1 FN3 based monobody (designed binder)
chain: SSVPTKLEVVAATPTSLLISWDAPAVTVDYYVITYGETGYWPYYWQEFEVPGSKSTATISGLKPGVDYTITVYAGSYDSYYYYGSPISINYRT
B4: Nsa2 FN3 based monobody (designed binder)
chain: SSVPTKLEVVAATPTSLLISWDAPAVTVDYYVITYGETGYYAYFQEFEVPGSKSTATISGLKPGVDYTITVYAGYYGYYGSPISINYRT
B5: Nsa4 FN3 based monobody (designed binder)
chain: SSVPTKLEVVAATPTSLLISWDAPAVTVDYYVITYGETGYYAYFQEFEVPGSKSTATISGLKPGVDYTITVYAGYYGYYGNPISINYRT
B6: Nsa5 FN3 based monobody (designed binder)
chain: SSVPTKLEVVAATPTSLLISWDAPAVTVDFYVITYGETGYFSGFQEFEVPGSKSTATISGLKPGVDYTITVYAGYYGYYGSPISINYRT
B7: Nsa1 FN3 based monobody (designed binder)
chain: SSVPTKLEVVAATPTSLLISWDAPAVTVDYYVITYGETGSGGYAWQEFEVPGSKSTATISGLKPGVDYTITVYAGYYGYPTYYSSPISINYRT

Substrate in the first experiment: T1, C terminal SH2 domain of SHP2 (Mus musculus (Mouse)) (UniProt P35235)
T1 sequence: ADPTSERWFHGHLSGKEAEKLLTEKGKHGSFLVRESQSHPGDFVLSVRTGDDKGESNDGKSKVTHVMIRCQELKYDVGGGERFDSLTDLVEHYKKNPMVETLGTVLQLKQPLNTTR
Put plainly: ELISA. For orientation: In an ELISA, binding on a coated surface is turned into a signal by an enzyme label.
Turning to B1, the binding entry is listed as “binds”.
Same read-out and setting: the entry for B2 is “binds”; for B3 it is “binds”.

Substrate in the next experiment: T2, N terminal SH2 domain of SHP2 (Mus musculus (Mouse)) (UniProt P35235)
T2 sequence: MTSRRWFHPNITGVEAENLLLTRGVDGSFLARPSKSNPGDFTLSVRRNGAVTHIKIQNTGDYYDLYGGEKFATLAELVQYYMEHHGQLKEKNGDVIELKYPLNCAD
As to the kind of experiment: ELISA.
With B4, the binding entry is listed as “binds”.
The same measure, in the same setting: the entry for B5 is “binds”; for B6 it is “binds”; for B7 it is “binds”.
